# Assay results: paper PMC7641127, “MCL1 binds and negatively regulates the transcriptional function of tumor suppressor p73” (Cell Death & Disease, 2020)
# Chains of the proteins cited; added tags and fusions are not shown.
# UniProt Q07820: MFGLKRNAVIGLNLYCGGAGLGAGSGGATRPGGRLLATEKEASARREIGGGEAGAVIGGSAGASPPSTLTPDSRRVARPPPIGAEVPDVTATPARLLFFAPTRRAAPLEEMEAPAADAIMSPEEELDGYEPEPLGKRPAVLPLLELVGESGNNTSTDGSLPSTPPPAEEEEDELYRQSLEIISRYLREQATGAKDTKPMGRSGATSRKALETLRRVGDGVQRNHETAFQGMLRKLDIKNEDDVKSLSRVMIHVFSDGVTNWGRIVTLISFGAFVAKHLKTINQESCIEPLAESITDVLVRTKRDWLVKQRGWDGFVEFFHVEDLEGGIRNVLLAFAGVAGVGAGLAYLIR
# Results are given in words; binding and its absence hold for the method and conditions named. Binding seen in cells or lysates may run through a third protein. Some binding calls cover weakened binding; strength is not graded here. Where a sequence is shown, tags or fusion partners need not be part of it.
# B1: FLAG-ΔNp73α (protein, UniProt O15350-8 1-587)
# chain: MLYVGDPARHLATAQFNLLSSTMDQMSSRAASASPYTPEHAASVPTHSPYAQPSSTFDTMSPAPVIPSNTDYPGPHHFEVTFQQSSTAKSATWTYSPLLKKLYCQIAKTCPIQIKVSTPPPPGTAIRAMPVYKKAEHVTDVVKRCPNHELGRDFNEGQSAPASHLIRVEGNNLSQYVDDPVTGRQSVVVPYEPPQVGTEFTTILYNFMCNSSCVGGMNRRPILIIITLEMRDGQVLGRRSFEGRICACPGRDRKADEDHYREQQALNESSAKNGAASKRAFKQSPPAVPALGAGVKKRRHGDEDTYYLQVRGRENFEILMKLKESLELMELVPQPLVDSYRQQQQLLQRPSHLQPPSYGPVLSPMNKVHGGMNKLPSVNQLVGQPPPHSSAATPNLGPVGPGMLNNHGHAVPANGEMSSSHSAQSMVSGSHCTPPPPYHADPSLVSFLTGLGCPNCIEYFTSQGLQSIYHLQNLTIEDLGALKIPEQYRMTIWRGLQDLKQGHDYSTAQQLLRSSNAATISIGGSGELQRQRVMEAVHFRVRHTITIPNRGGPGGGPDEWADFGFDLPDCKARKQPIKEEFTEAEIH
# B2: FLAG-tagged TAp73α (protein, UniProt O15350-1 1-636)
# chain: MAQSTATSPDGGTTFEHLWSSLEPDSTYFDLPQSSRGNNEVVGGTDSSMDVFHLEGMTTSVMAQFNLLSSTMDQMSSRAASASPYTPEHAASVPTHSPYAQPSSTFDTMSPAPVIPSNTDYPGPHHFEVTFQQSSTAKSATWTYSPLLKKLYCQIAKTCPIQIKVSTPPPPGTAIRAMPVYKKAEHVTDVVKRCPNHELGRDFNEGQSAPASHLIRVEGNNLSQYVDDPVTGRQSVVVPYEPPQVGTEFTTILYNFMCNSSCVGGMNRRPILIIITLEMRDGQVLGRRSFEGRICACPGRDRKADEDHYREQQALNESSAKNGAASKRAFKQSPPAVPALGAGVKKRRHGDEDTYYLQVRGRENFEILMKLKESLELMELVPQPLVDSYRQQQQLLQRPSHLQPPSYGPVLSPMNKVHGGMNKLPSVNQLVGQPPPHSSAATPNLGPVGPGMLNNHGHAVPANGEMSSSHSAQSMVSGSHCTPPPPYHADPSLVSFLTGLGCPNCIEYFTSQGLQSIYHLQNLTIEDLGALKIPEQYRMTIWRGLQDLKQGHDYSTAQQLLRSSNAATISIGGSGELQRQRVMEAVHFRVRHTITIPNRGGPGGGPDEWADFGFDLPDCKARKQPIKEEFTEAEIH
# B3: FLAG-TAp73β (protein, UniProt O15350-2 1-499)
# chain: MAQSTATSPDGGTTFEHLWSSLEPDSTYFDLPQSSRGNNEVVGGTDSSMDVFHLEGMTTSVMAQFNLLSSTMDQMSSRAASASPYTPEHAASVPTHSPYAQPSSTFDTMSPAPVIPSNTDYPGPHHFEVTFQQSSTAKSATWTYSPLLKKLYCQIAKTCPIQIKVSTPPPPGTAIRAMPVYKKAEHVTDVVKRCPNHELGRDFNEGQSAPASHLIRVEGNNLSQYVDDPVTGRQSVVVPYEPPQVGTEFTTILYNFMCNSSCVGGMNRRPILIIITLEMRDGQVLGRRSFEGRICACPGRDRKADEDHYREQQALNESSAKNGAASKRAFKQSPPAVPALGAGVKKRRHGDEDTYYLQVRGRENFEILMKLKESLELMELVPQPLVDSYRQQQQLLQRPSHLQPPSYGPVLSPMNKVHGGMNKLPSVNQLVGQPPPHSSAATPNLGPVGPGMLNNHGHAVPANGEMSSSHSAQSMVSGSHCTPPPPYHADPSLVRTWGP
# Biological target: MCL1 (full length human, overexpressed in HEK293T) (human) (UniProt Q07820)
# Test: co-IP; HEK293T co-transfected with MCL1 and a FLAG-p73 construct or FLAG control, 50 nM bortezomib for 24 h; MCL1 precipitated with anti-MCL1 (RC-13) on protein G Dynabeads; western blot for FLAG and MCL1
row,binding,Binder
1,binds weakly,B1
2,binds weakly,B2
3,binds weakly,B3
